Test [1] has as its target FLAG-RHEB T38A (UniProt Q15382). The test can be described thus: co-IP; anti-FLAG M2 magnetic beads on lysates of HEK293T cells transfected with FLAG-RHEB forms; lysis buffer 50 mM HEPES pH 7.4, 150 mM NaCl, 0.4% CHAPS, 25 mM MgCl2; eluted with 3X FLAG peptide; Western blot for endogenous partners. On the technique in general: Immunoblotting shows a protein as a band on a membrane.

The target of test [2] is FLAG-RHEB WT (UniProt Q15382). The description is as above.
The target of test [3] is FLAG-RHEB D60I (UniProt Q15382). The test is described as above.
Test [4] addresses FLAG-RHEB Y35N (UniProt Q15382). Described as above.
Test [5] concerns the target BRAF (NIH 3T3) (mouse (endogenous in NIH 3T3)) (UniProt P28028). The test can be described thus: co-IP; endogenous BRAF immunoprecipitated from lysates of NIH 3T3 lines stably expressing FLAG-RHEB WT or FLAG-RHEB Y35N; Western blots for CRAF, BRAF and FLAG.

No constants are given. Whether binding was seen depends on the method and setting. Binding seen in cells or lysates may run through a third protein. Some entries that bind do so weakly or less than the wild type.

In the case of BRAF (from UniProt P15056 1-766), the binding result in test [1], in test [2], in test [3] and in test [4] was “binds” throughout.
As to CRAF (from UniProt P04049 1-648), the binding entry in test [2] is reported as “no binding”.
Consider “FLAG-RHEB WT (stably expressed in NIH 3T3) (from UniProt Q15382 1-184)”, for which the binding entry in test [5] is “binds”.
Still for that read-out and setting: the result for “FLAG-RHEB Y35N (stably expressed in NIH 3T3) (from UniProt Q15382 1-184)” reads “binds”.

The record behind these values is paper PMC5763582.
